Laboratory results from the supplement of paper PMC6411743.
± gives the standard deviation of the averaged measurements. The list shows a part of the results.

Assays:
Assay in all cases: NP40-soluble protein abundance relative to vehicle (solubility fold change) (ratio); higher = more soluble protein in presence of GTP
[1] = target: T1, UniProt Q8N5A5 and related entries
T1 sequence (whole entry): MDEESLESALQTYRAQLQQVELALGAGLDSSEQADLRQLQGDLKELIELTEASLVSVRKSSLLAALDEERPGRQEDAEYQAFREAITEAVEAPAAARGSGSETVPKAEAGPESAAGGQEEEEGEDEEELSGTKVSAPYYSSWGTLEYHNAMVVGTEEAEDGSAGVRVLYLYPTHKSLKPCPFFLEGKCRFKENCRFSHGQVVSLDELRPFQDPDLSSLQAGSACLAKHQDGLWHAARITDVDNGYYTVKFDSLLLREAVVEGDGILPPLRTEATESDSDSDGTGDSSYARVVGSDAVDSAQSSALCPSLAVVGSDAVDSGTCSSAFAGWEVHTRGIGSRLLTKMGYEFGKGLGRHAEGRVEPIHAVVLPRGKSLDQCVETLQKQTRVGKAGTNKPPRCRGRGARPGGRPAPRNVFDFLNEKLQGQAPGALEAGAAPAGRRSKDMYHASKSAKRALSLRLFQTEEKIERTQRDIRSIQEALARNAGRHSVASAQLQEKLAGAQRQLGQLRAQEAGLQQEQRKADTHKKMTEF
Summary of the method: (§1)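 Each value is a fold change relative to the detergent-processed vehicle, calculated per replicate from vsn-normalised intensities. Jurkat crude lysate received eight concentrations (0.1 to 10 mM) for 10 min at room temperature and 3 min at 37 °C, then was solubilised in 0.8% NP40 with benzonase (60 min, 4 °C). The ultracentrifuged supernatant was TMT-labelled and run by LC-MS/MS in three independent experiments.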

UniProt Q8N5L8 = target: T2, UniProt Q8N5L8
T2 sequence (whole entry): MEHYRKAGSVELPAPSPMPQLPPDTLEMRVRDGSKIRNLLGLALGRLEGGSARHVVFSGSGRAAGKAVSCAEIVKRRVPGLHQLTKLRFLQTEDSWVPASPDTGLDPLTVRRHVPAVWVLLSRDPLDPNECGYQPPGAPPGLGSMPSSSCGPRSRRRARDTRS
Summary of the method: as §1

[2] = target: T3, UniProt Q8N5Y8 and related entries
T3 sequence (whole entry): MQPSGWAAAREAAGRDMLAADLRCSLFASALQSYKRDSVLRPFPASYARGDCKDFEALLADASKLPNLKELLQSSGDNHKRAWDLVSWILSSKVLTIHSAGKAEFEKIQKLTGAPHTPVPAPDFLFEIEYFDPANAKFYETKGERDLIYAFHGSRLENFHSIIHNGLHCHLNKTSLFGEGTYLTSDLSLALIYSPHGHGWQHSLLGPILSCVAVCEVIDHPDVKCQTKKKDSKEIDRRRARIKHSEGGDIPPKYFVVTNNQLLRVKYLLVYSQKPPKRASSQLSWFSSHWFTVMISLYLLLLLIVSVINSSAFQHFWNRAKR
Summary of the method: as §1

[3] = target: T4, UniProt Q8NBM4 and related entries
T4 sequence (whole entry): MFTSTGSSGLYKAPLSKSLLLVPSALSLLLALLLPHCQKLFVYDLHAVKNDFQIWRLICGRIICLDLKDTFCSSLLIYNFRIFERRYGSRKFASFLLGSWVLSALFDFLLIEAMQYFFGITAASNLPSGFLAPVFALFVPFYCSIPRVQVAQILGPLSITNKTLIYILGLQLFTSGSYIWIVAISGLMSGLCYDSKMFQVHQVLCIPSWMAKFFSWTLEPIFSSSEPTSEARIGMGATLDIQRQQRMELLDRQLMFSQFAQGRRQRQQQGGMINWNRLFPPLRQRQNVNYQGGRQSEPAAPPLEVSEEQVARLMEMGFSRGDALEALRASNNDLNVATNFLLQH
Summary of the method: as §1

[4] = target: T5, UniProt Q8NBN7 and related entries
T5 sequence (whole entry): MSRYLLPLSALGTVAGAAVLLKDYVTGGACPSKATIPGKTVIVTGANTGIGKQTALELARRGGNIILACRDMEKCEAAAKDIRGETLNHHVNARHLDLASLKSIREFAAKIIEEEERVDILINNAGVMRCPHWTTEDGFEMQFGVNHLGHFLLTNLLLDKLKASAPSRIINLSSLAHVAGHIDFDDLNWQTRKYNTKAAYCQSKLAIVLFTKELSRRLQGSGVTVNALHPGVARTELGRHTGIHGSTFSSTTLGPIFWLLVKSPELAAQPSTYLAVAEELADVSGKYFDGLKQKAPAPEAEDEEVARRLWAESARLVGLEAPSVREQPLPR
Summary of the method: as §1

[5] = target: T6, UniProt Q8TB36 and related entries
T6 sequence (whole entry): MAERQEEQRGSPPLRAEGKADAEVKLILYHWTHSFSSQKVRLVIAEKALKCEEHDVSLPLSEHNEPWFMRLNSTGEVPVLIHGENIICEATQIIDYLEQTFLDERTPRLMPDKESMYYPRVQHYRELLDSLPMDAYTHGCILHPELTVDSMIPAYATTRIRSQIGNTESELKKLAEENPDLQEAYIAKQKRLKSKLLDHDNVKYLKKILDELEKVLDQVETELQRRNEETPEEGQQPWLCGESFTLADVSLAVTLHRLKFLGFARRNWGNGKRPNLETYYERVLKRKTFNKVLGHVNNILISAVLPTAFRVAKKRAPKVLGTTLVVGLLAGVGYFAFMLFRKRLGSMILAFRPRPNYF
Summary of the method: as §1

## Nc1nc2c(ncn2[C@@H]2O[C@H](COP(=O)(O)OP(=O)(O)OP(=O)(O)O)[C@@H](O)[C@H]2O)c(=O)[nH]1 [guanosine triphosphate]
[1]; concentration: 8mM
  NP40-soluble protein abundance: 1.13 ± 0.072
[1]; concentration: 10mM
  NP40-soluble protein abundance: 1.15 ± 0.08
UniProt Q8N5L8; concentration: 0.1mM
  NP40-soluble protein abundance: 0.973 ± 0.088
UniProt Q8N5L8; concentration: 0.5mM
  NP40-soluble protein abundance: 0.914 ± 0.12
UniProt Q8N5L8; concentration: 1mM
  NP40-soluble protein abundance: 1.2 ± 0.16
UniProt Q8N5L8; concentration: 2mM
  NP40-soluble protein abundance: 1.21 ± 0.08
UniProt Q8N5L8; concentration: 4mM
  NP40-soluble protein abundance: 1.26 ± 0.082
UniProt Q8N5L8; concentration: 6mM
  NP40-soluble protein abundance: 1.25 ± 0.12
UniProt Q8N5L8; concentration: 8mM
  NP40-soluble protein abundance: 1.31 ± 0.2
UniProt Q8N5L8; concentration: 10mM
  NP40-soluble protein abundance: 1.38 ± 0.22
[2]; concentration: 0.1mM
  NP40-soluble protein abundance: 1.04 ± 0.075
[2]; concentration: 0.5mM
  NP40-soluble protein abundance: 1.06 ± 0.12
[2]; concentration: 1mM
  NP40-soluble protein abundance: 1.01 ± 0.088
[2]; concentration: 2mM
  NP40-soluble protein abundance: 1.02 ± 0.11
[2]; concentration: 4mM
  NP40-soluble protein abundance: 1.06 ± 0.14
[2]; concentration: 6mM
  NP40-soluble protein abundance: 1.01 ± 0.076
[2]; concentration: 8mM
  NP40-soluble protein abundance: 0.966 ± 0.11
[2]; concentration: 10mM
  NP40-soluble protein abundance: 0.976 ± 0.11
[3]; concentration: 0.1mM
  NP40-soluble protein abundance: 1.07 ± 0.063
[3]; concentration: 0.5mM
  NP40-soluble protein abundance: 0.969 ± 0.056
[3]; concentration: 1mM
  NP40-soluble protein abundance: 0.969 ± 0.026
[3]; concentration: 2mM
  NP40-soluble protein abundance: 1.02 ± 0.051
[3]; concentration: 4mM
  NP40-soluble protein abundance: 1.06 ± 0.029
[3]; concentration: 6mM
  NP40-soluble protein abundance: 1.06 ± 0.042
[3]; concentration: 8mM
  NP40-soluble protein abundance: 1.03 ± 0.052
[3]; concentration: 10mM
  NP40-soluble protein abundance: 1.03 ± 0.084
[4]; concentration: 0.1mM
  NP40-soluble protein abundance: 0.969 ± 0.067
[4]; concentration: 0.5mM
  NP40-soluble protein abundance: 1.02 ± 0.096
[4]; concentration: 1mM
  NP40-soluble protein abundance: 1 ± 0.052
[4]; concentration: 2mM
  NP40-soluble protein abundance: 0.999 ± 0.087
[4]; concentration: 4mM
  NP40-soluble protein abundance: 0.949 ± 0.044
[4]; concentration: 6mM
  NP40-soluble protein abundance: 0.973 ± 0.064
[4]; concentration: 8mM
  NP40-soluble protein abundance: 0.932 ± 0.065
[4]; concentration: 10mM
  NP40-soluble protein abundance: 0.964 ± 0.07
[5]; concentration: 0.1mM
  NP40-soluble protein abundance: 0.967 ± 0.032
[5]; concentration: 0.5mM
  NP40-soluble protein abundance: 0.987 ± 0.037
[5]; concentration: 1mM
  NP40-soluble protein abundance: 0.916 ± 0.038
[5]; concentration: 2mM
  NP40-soluble protein abundance: 0.924 ± 0.058
[5]; concentration: 4mM
  NP40-soluble protein abundance: 0.894 ± 0.024
[5]; concentration: 6mM
  NP40-soluble protein abundance: 0.918 ± 0.041
[5]; concentration: 8mM
  NP40-soluble protein abundance: 0.891 ± 0.032
[5]; concentration: 10mM
  NP40-soluble protein abundance: 0.88 ± 0.038
